Laboratory results as given in PubChem BioAssay AID2551 (National Center for Advancing Translational Sciences (NCATS), 2010).
Out of some 310,000 compounds screened, about 17,000 (5.5%) were called active. This list was built around the results that the source calls inconclusive (neither active nor inactive); the mix of calls is not that of the screen. Calls come from the whole dose curve; as a rule, active = well fitted inhibition curve with a large enough effect; inconclusive = small, poorly fitted or top-dose-only effect, or effect the other way; inactive = no such curve, though single readings can be large or run the other way. Potencies beside an inconclusive call are fits to weak or partial responses and may not hold up.

Amino acid sequences for entries named in this document (tags omitted). A change or cut given only in a name is not applied to a line headed by its entry.
UniProt P51450: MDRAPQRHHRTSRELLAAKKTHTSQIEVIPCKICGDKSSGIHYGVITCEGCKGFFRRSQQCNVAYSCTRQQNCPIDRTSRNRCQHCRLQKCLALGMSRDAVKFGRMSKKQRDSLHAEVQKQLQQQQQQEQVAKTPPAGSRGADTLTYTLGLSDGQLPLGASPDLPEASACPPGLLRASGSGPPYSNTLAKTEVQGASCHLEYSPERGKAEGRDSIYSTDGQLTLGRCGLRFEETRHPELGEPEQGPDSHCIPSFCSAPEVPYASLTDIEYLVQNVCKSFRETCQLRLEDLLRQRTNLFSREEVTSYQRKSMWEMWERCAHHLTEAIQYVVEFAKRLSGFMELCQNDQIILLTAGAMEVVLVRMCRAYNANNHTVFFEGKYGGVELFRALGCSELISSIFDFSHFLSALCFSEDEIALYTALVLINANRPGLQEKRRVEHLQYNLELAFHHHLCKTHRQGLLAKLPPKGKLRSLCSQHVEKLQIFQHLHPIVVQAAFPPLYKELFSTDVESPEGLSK

Molecular target: Nuclear receptor ROR-gamma (Mus musculus) (UniProt P51450)
Test: qHTS for inhibitors of ROR gamma transcriptional activity; note: nearly all actives have a fitted effect of over 60% in size
Details: Drosophila S2 Gal4-RORgamma UAS-luciferase reporter, 20 h; activity change, negative = inhibition: at 53.6 µM (top of the series)
Method in brief: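 Luminescence from a UAS-regulated Photinus luciferase reporter in stably transfected Drosophila Schneider cells is measured; decreased signal marks ROR gamma inhibition. Fusion expression is induced by 700 uM copper sulfate for 20 hr.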
% is set by controls: 0 for no effect and ±100 for the full control effect; potency is the fitted concentration of half-maximal effect.

| SMILES | activity change, negative = inhibition | Potency |
| --- | --- | --- |
| Cc1ccc2cc(CN(C(=O)c3ccco3)c3cccc(C)c3C)c(=O)[nH]c2c1 | inactive: -4.81% |  |
| COc1ccc(-c2[nH]ncc2-c2nc(C)cs2)c(O)c1 |  | inconclusive: 22.4 µM [inhibitor, single point] |
| O=C(Nc1cccc(S(=O)(=O)NCc2ccco2)c1)c1cc(-c2ccc(F)cc2)nc2ccccc12 |  | inconclusive: 7.94 µM [activator, partial curve] |
| CC(=O)Nc1cnc(NC(=O)c2cccc(F)c2)cc1C |  | active: 3.98 µM |
| COc1ccccc1NC(=O)C1=C(C)Nc2nnnn2C1c1ccccn1 (stereo not given) | inactive: 1.82% |  |
| COc1ccccc1N1CCN(C(c2cc3cc(C)ccc3[nH]c2=O)c2nnnn2C2CCCC2)CC1 (stereo not given) |  | inconclusive: 0.631 µM [inhibitor, single point] |
| O=C(NC(=S)Nc1ccc(N2CCOCC2)cc1)c1ccco1 |  | inconclusive: 28.2 µM [inhibitor, single point] |
| COc1ccc2ccccc2c1/C=N/NC(=S)NCCN1CCOCC1 |  | active: 4.47 µM |
| CC(C)(O)c1[nH]c2ccc(C(F)(F)F)cc2c1C(C)(C)O |  | inconclusive: 31.6 µM [activator, single point] |
| Cc1ccc(NC(=S)Nc2ccc(S(=O)(=O)Nc3ncccn3)cc2)cc1Cl |  | active: 31.6 µM |
| CCN1/C(=C(\O)c2ccccc2)C(=O)c2ccccc2S1(=O)=O |  | active: 10 µM |
| CC(=O)Nc1ccc(N=Nc2ccc(O)cc2)cc1 |  | inconclusive: 8.91 µM [inhibitor, partial curve] |
| Cc1occc1C(=O)Nc1cccnc1 |  | inconclusive: 15.8 µM [activator, single point] |
| CCC(=O)Nc1sc(Cc2ccccc2)c(C)c1C(N)=O |  | inconclusive: 17.8 µM [activator, single point] |
| Cn1c2ccccc2c2cc(/C=N/NC(=O)c3ccccc3F)ccc21 |  | inconclusive: 17.8 µM [inhibitor, single point] |
| COc1ccc(N=C2SC(CC(=O)Nc3ccc(F)cc3)C(=O)N2Cc2ccco2)cc1 (stereo not given) |  | inconclusive: 12.6 µM [activator, partial curve] |
| COc1cccc(/C=C2\SC(=S)N(CCCC(=O)N(CCO)c3ccccc3)C2=O)c1 |  | active: 7.08 µM |
| CCc1nn(C(CC)C(=O)NCc2cccc(OC)c2)c(=O)c2cc3occc3n12 (stereo not given) | inactive: 0.0632% |  |
| CCCSS/C(CCO)=C(/C)N(C=O)Cc1cnc(C)nc1N |  | inconclusive: 35.5 µM [inhibitor, single point] |
| Cn1cc(CNC(=O)c2cc(COc3ccc4c(c3)CCCC4)on2)cn1 |  | inconclusive: 12.6 µM [activator, single point] |

Entries of single compounds as entered above:
CC(=O)Nc1cnc(NC(=O)c2cccc(F)c2)cc1C reads Potency: active: 3.98 µM
COc1ccc(N=C2SC(CC(=O)Nc3ccc(F)cc3)C(=O)N2Cc2ccco2)cc1 (stereo not given) reads Potency: inconclusive: 12.6 µM [activator, partial curve]
